{"sequences": {"note": "Amino acid sequences for entries named in this document (tags omitted). A change or cut given only in a name is not applied to a line headed by its entry.", "UniProt Q01638": "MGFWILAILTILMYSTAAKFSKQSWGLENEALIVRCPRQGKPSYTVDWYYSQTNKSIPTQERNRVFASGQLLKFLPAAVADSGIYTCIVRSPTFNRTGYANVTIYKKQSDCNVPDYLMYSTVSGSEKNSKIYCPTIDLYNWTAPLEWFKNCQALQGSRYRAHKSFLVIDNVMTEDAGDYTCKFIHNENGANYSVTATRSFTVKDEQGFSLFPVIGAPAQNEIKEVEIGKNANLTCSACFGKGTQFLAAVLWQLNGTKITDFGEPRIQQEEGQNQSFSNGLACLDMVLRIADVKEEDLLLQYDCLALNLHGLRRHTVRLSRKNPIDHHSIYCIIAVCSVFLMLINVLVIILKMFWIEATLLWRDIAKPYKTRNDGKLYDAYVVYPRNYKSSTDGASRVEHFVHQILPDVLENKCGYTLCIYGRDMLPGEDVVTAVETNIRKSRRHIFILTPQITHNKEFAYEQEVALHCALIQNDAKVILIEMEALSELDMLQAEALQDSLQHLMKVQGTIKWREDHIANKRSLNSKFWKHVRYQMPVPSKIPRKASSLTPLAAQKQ"}, "source": "PubChem BioAssay AID1259354", "about": "(Paczesny and Yang Labs, IUPUI and University of Michigan, 2018)", "note": "Screen size: about 78,000 compounds; about 1,800 (2.3%) were called active. Inconclusive results, whose numbers are uncertain, are shown with a selection of clear calls. Cut-off read from the data, not from the text of the source: active = inhibition above about 30%; inconclusive = mostly about 10% to 28%; inactive = weaker than that. More than one record can exist for a structure, and the calls need not agree.", "data": [{"target": "Interleukin-1 receptor-like 1 (Homo sapiens) (UniProt Q01638)", "experiment": "blocks human ST2 binding to IL-33, primary screen, biochemical, AlphaLISA (AID 1259354)", "details": "AlphaLISA ST2-Fc/biotin-IL-33 interaction, 1 h; at 17 µM, stronger effect = higher value", "values": [{"smiles": "O=C(c1ccc2c(c1)N(Cc1ccc(F)cc1Cl)C(=O)CS2)N1CCOCC1", "inhibition": "inactive"}, {"smiles": "CCN(CC)CCNC(=O)C1CCN(Cc2ccc(Cl)cc2)CC1", "inhibition": "inactive"}, {"smiles": "COc1ccc(N2CC(C(=O)Nc3ccc(S(=O)(=O)Nc4nccs4)cc3)CC2=O)cc1", "note": "(centres undefined)", "inhibition": "inconclusive: 13%"}, {"smiles": "COc1ccccc1-c1cccc(C(=O)NCc2csc(N)n2)c1", "inhibition": "inactive"}, {"smiles": "Cc1cc(NC(=O)c2ccc3ccccc3c2)nc2c1c(=O)oc1ccccc12", "inhibition": "inactive"}, {"smiles": "Cc1nn(-c2ccccc2)c2c1C(c1ccncc1)C(C#N)=C(N)O2", "note": "(centres undefined)", "inhibition": "active: 38%"}, {"smiles": "O=C(Nc1nc(-c2ccc3c(c2)OCO3)cs1)c1cc(=O)c2ccccc2o1", "inhibition": "active: 45%", "outcome": "inactive"}, {"smiles": "O=C1OC(c2cccc(I)c2)=N/C1=C\\C=C\\c1ccccc1", "inhibition": "inconclusive: 10%"}, {"smiles": "CSc1ccc(CN(C)C2CCN(C)CC2)cc1", "inhibition": "inactive"}, {"smiles": "Cc1ccc2cc3cc(C(=O)NC4CC4)sc3nc2c1", "inhibition": "inconclusive: 16%"}, {"smiles": "CCOc1ccc(OCCN2CCCC2)cc1", "inhibition": "inactive"}, {"smiles": "Cc1nnc(Sc2cc(C(=O)NCCN3CCCC3)c3ccccc3n2)s1", "inhibition": "inconclusive: 17%"}, {"smiles": "COc1cc(C(=O)n2c(C)nc3ccccc32)cc(OC)c1OC", "inhibition": "inconclusive: 17%"}, {"smiles": "O=[N+]([O-])c1ccccc1CN1CCN(Cc2ccccn2)CC1", "inhibition": "inactive"}, {"smiles": "Cc1ccc(C)c(CN2C(=O)CSc3ccc(C(=O)NC4CCCC4)cc32)c1", "inhibition": "inactive"}, {"smiles": "CCOC(=O)c1c(C)oc2cc(Br)c(OC(C)C(=O)OC)cc12", "note": "(centres undefined)", "inhibition": "inactive"}, {"smiles": "CC(C)Cc1ccc(CN2CCCC(NC(=O)Cc3cccnc3)C2)cc1", "note": "(centres undefined)", "inhibition": "inconclusive: 11%"}, {"smiles": "CCCNS(=O)(=O)c1nc2nc(C)cc(C)n2n1", "inhibition": "inconclusive: 15%"}, {"smiles": "COc1ccc(N2C(=O)c3c(C)nc4ccccc4c3C2=O)c(OC)c1", "inhibition": "inconclusive: 24%"}, {"smiles": "NC1=NN(c2ccccc2)CC1", "inhibition": "active: 40%"}, {"smiles": "Cc1ccccc1Cn1cc(C(=O)N2CCCN(C3CCCCC3)CC2)nn1", "inhibition": "inactive"}, {"smiles": "CCOC(=O)C1(CCCc2ccccc2)CCN(C(=O)c2csc(C(C)=O)c2)CC1", "inhibition": "inconclusive: 11%"}, {"smiles": "O=C(NCCc1nc(-c2ccccc2)no1)C1CC(=O)N(C2CC2)C1", "note": "(centres undefined)", "inhibition": "inconclusive: 10%"}, {"smiles": "CCN1CCN(C(=O)CN2C(=O)/C(=C\\c3cccc(Cl)c3)Sc3ccccc32)CC1", "inhibition": "inconclusive: 16%"}, {"smiles": "CCc1ccc(C(=O)c2c[nH]c3ccc(Cl)cc3c2=O)cc1", "inhibition": "inconclusive: 27%"}, {"smiles": "CCCSc1nc(C)cc(COC)c1C#N", "inhibition": "inactive"}, {"smiles": "O=C(CN1C(=O)/C(=C/c2ccccc2F)Sc2ccccc21)NC1CCCCCC1", "inhibition": "inactive"}, {"smiles": "COc1cc(C)c(CN2CCN(c3ccccn3)CC2)cc1C", "inhibition": "inconclusive: 10%"}, {"smiles": "Cc1ccsc1CN1CCN(c2ccccc2Cl)CC1", "inhibition": "inconclusive: 21%"}, {"smiles": "Cc1c(C)n(O)[n+]([O-])c1-c1ccccc1", "inhibition": "inconclusive: 13%"}, {"smiles": "COc1ccc(C(=O)NC(C)Cc2c[nH]c3ccccc23)cc1", "note": "(centres undefined)", "inhibition": "inconclusive: 14%"}, {"smiles": "O=C(NCc1ccc2c(c1)OCO2)c1cc(Cn2ccc3ccccc32)[nH]n1", "inhibition": "inactive"}, {"smiles": "CN(C)S(=O)(=O)CCNC(=O)c1cccc2nccnc12", "inhibition": "inconclusive: 14%"}, {"smiles": "N#C/C(=C\\c1ccc(Cl)cc1)c1nc(-c2ccccc2)cs1", "inhibition": "active: 51%"}, {"smiles": "Fc1cccc(-c2nccn2Cc2noc(Cc3ccccc3)n2)c1", "inhibition": "inconclusive: 13%"}, {"smiles": "CCc1nnc(NC(=O)c2cccc([N+](=O)[O-])c2C)s1", "inhibition": "inconclusive: 11%"}, {"smiles": "Cc1c(C(=O)Nc2ccc(S(N)(=O)=O)cc2)oc2ccccc12", "inhibition": "inconclusive: 18%"}, {"smiles": "O=C1CC(N2CCCCCCC2)C(=O)N1c1ccc(Br)cc1Br", "note": "(centres undefined)", "inhibition": "inconclusive: 10%"}, {"smiles": "COc1ccccc1N1CCN([C@@H]2[C@H](O)[C@H](CO)O[C@@H]2CNC(=O)c2cccs2)CC1", "inhibition": "inconclusive: 23%"}, {"smiles": "CCn1cc(C(=O)N2CC(C)CC(C)C2)c(=O)c2cc(S(=O)(=O)N3CCCCC3)ccc21", "note": "(centres undefined)", "inhibition": "inactive"}, {"smiles": "CCCS(=O)(=O)c1c(S(=O)(=O)CCC)c2c(N)cccn2c1C(=O)c1ccc(C)cc1", "inhibition": "inconclusive: 12%"}, {"smiles": "COc1cc(Cl)cc(C(=O)N2CCC(O)(CN(C)C)C2)c1", "note": "(centres undefined)", "inhibition": "inconclusive: 13%"}, {"smiles": "CN(Cc1ccccc1)CN1C(=O)c2ccccc2C1=O", "inhibition": "inconclusive: 14%"}, {"smiles": "CCC(NC1CCN(c2nc(C)c3cc(C)c(C)cc3n2)CC1)c1ccncc1", "note": "(centres undefined)", "inhibition": "inconclusive: 20%"}, {"smiles": "Cc1ccc(N2C(=O)CC(Sc3nc4ccccc4o3)C2=O)cc1", "note": "(centres undefined)", "inhibition": "inactive"}, {"smiles": "O=C(Nc1ccc(Nc2ccccc2)cc1)C1CCCC1", "inhibition": "inconclusive: 28%"}, {"smiles": "Cc1nnc(-c2ccccc2-c2cccc(CN3CCOCC3)c2)o1", "inhibition": "inactive"}, {"smiles": "Fc1ccccc1OC1CN(c2nc(-c3ccncc3)nc3c2CNC3)C1", "inhibition": "inconclusive: 21%"}, {"smiles": "CC(NC(=O)c1cccs1)C(c1cccs1)N1CCN(c2ccc(F)cc2)CC1", "note": "(centres undefined)", "inhibition": "inconclusive: 10%"}, {"smiles": "Brc1ccc(-c2nnc3n2N=C(c2cccs2)CS3)cc1", "inhibition": "inactive"}, {"smiles": "O=C(CSc1nc2ccccc2[nH]1)Nc1cc(Cl)ccc1Cl", "inhibition": "inconclusive: 12%"}, {"smiles": "CCOc1ccc(Nc2nc(-c3nnc(-c4ccc(C)cc4)o3)nc3ccccc23)cc1", "inhibition": "inconclusive: 19%"}, {"smiles": "O=C(c1ccc(F)cc1)N1CCN(c2ccccc2[N+](=O)[O-])CC1", "inhibition": "inconclusive: 23%"}, {"smiles": "Cc1cc(=O)n(-c2ccccc2)[nH]1", "inhibition": "inconclusive: 22%"}, {"smiles": "Cc1ccc2nc(-c3ccccn3)c(Nc3ccc4c(c3)OCCO4)n2c1", "inhibition": "active: 31%"}, {"smiles": "FC(F)(F)c1cc(-c2ccco2)nc(-n2cnc3ccccc32)n1", "inhibition": "inconclusive: 15%"}, {"smiles": "O=C(NC1(C(F)(F)F)Oc2cc(Cl)c(Cl)cc2O1)N1CCCC1", "inhibition": "inconclusive: 16%"}, {"smiles": "CCN1CCOC(CC(=O)Nc2ccccc2)C1=O", "note": "(centres undefined)", "inhibition": "inconclusive: 13%"}, {"smiles": "COc1ccc(C2C(C(=O)NCC3CCCO3)c3cc(OC)c(OC)cc3C(=O)N2C)cc1", "note": "(centres undefined)", "inhibition": "inconclusive: 14%"}, {"smiles": "CCOc1ccc(N2C(=O)[C@H]3C4c5ccccc5C(CO)(c5ccccc54)[C@H]3C2=O)cc1", "inhibition": "inconclusive: 13%"}, {"smiles": "CCOc1ccccc1N=Cc1c(C)[nH]n(-c2ccccc2)c1=O", "inhibition": "inconclusive: 27%"}, {"smiles": "CCCCN(CC)C(=O)c1ccc([N+](=O)[O-])cc1Cl", "inhibition": "inconclusive: 20%"}, {"smiles": "COc1ccccc1-n1c(O)c(C=Nc2ccc(Cl)cc2)c2ccccc2c1=O", "inhibition": "inconclusive: 27%"}, {"smiles": "Oc1oc(-c2ccc(Br)cc2)nc1C=Nc1ccc(Cl)cn1", "inhibition": "active: 42%"}, {"smiles": "O=C(NCc1ccco1)c1sc2ccccc2c1Cl", "inhibition": "inconclusive: 14%"}, {"smiles": "CCC1=C(O)C(C)(C)C(c2ccc(Cl)cc2)OC1=O", "note": "(centres undefined)", "inhibition": "inactive"}, {"smiles": "Cc1ccc(S(=O)(=O)N2CCC(CO)(Cc3cccc(C(F)(F)F)c3)CC2)s1", "inhibition": "inactive"}, {"smiles": "COc1cc(/C=C2/C(=O)NN(c3ccc(Cl)cc3)C2=O)cc(OC)c1O", "inhibition": "active: 30%"}, {"smiles": "COc1cc(/C=C2/C(=O)NN(c3cccc(Br)c3)C2=O)cc(Cl)c1OC(C)C", "inhibition": "inconclusive: 10%"}, {"smiles": "Cc1ccc(F)c(NC(=O)CCC(=O)NCCN(C)S(C)(=O)=O)c1", "inhibition": "inconclusive: 14%"}, {"smiles": "Cc1ccccc1S(=O)(=O)Cc1ccc(C(=O)NCC2CCCO2)o1", "note": "(centres undefined)", "inhibition": "inactive"}, {"smiles": "COc1cc(C(=O)Nc2c(C(=O)Nc3cccc(F)c3)oc3ccccc23)cc(OC)c1OC", "inhibition": "inactive"}, {"smiles": "Cc1cc(C)nc(NC(=O)c2c(-c3ccccc3Cl)noc2C)c1", "inhibition": "inconclusive: 22%"}, {"smiles": "CCc1nc(CN2CCCC(CNC(=O)NC(C)(C)C)C2)c(C)[nH]1", "note": "(centres undefined)", "inhibition": "inconclusive: 20%"}, {"smiles": "CC(C)(C)c1ccccc1OCC(=O)NCCc1nc2ccccc2[nH]1", "inhibition": "inconclusive: 25%"}, {"smiles": "CCOC(=O)C1(CCOC)CCN(C(=O)c2cc(OC)c(OC)c(OC)c2)CC1", "inhibition": "inactive"}, {"smiles": "Cc1ccc2nc(SCC(=O)c3ccc4c(c3)OCO4)[nH]c2c1", "inhibition": "inactive"}, {"smiles": "CCOc1ccc(CC(=O)N(c2ccc(C(C)C)cc2)C2C=CS(=O)(=O)C2)cc1", "note": "(centres undefined)", "inhibition": "inactive"}, {"smiles": "C#CCOc1nc2c(c(=O)n(C)c(=O)n2C)n1Cc1ccccc1Cl", "inhibition": "inactive"}, {"smiles": "Cc1csc(CNC(=O)c2coc(COc3cccc(C(F)(F)F)c3)n2)n1", "inhibition": "inconclusive: 14%"}, {"smiles": "O=[N+]([O-])c1ccc(-n2nc3ccc4nonc4c3n2)cc1", "inhibition": "inconclusive: 12%"}, {"smiles": "CC1(C)CC(=O)C2=C(C1)Nc1ccc3ncccc3c1C2c1ccccc1C(F)(F)F", "note": "(centres undefined)", "inhibition": "inconclusive: 13%"}, {"smiles": "COc1ccc(C(=O)NC(Nc2ccccc2Cl)C(=O)c2ccccc2)cc1", "note": "(centres undefined)", "inhibition": "inconclusive: 24%"}, {"smiles": "C=CCNc1ccccc1C(=O)NCCN1CCNC1=O", "inhibition": "inconclusive: 15%"}, {"smiles": "O=S1(=O)CCC(Cc2nn3c(C4CCCC4)nnc3s2)C1", "note": "(centres undefined)", "inhibition": "inconclusive: 10%"}, {"smiles": "O=C(COc1nsnc1N1CCOCC1)Nc1ccc(F)cc1", "inhibition": "inconclusive: 10%"}, {"smiles": "COc1ccc(CN2CC(OCc3ccncc3)CN(C(=O)Cc3cccnc3)CC2=O)cc1", "note": "(centres undefined)", "inhibition": "inactive"}, {"smiles": "CCCOc1ccccc1NC(=O)CC1Sc2ccc(C(F)(F)F)cc2NC1=O", "note": "(centres undefined)", "inhibition": "inactive"}, {"smiles": "CC12CN3CC(C)(CN(C1)C3c1cc(Br)ccc1O)C2", "note": "(centres undefined)", "inhibition": "inconclusive: 14%"}, {"smiles": "CN(C(=O)N1CCN(C(=O)N(C)c2ccccc2)CC1)c1ccccc1", "inhibition": "inactive"}, {"smiles": "O=C(CC1COCCN1)N1CCN(C/C=C/c2ccccc2)CC1", "note": "(centres undefined)", "inhibition": "inconclusive: 27%"}, {"smiles": "O=C(c1ccncn1)N1CCOc2c(O)cc(-c3nc4ccccc4s3)cc2C1", "inhibition": "inconclusive: 11%"}, {"smiles": "Cc1nc(SCC(=O)Nc2nncs2)n[nH]1", "inhibition": "inactive"}, {"smiles": "Cc1cc(OCC(N)=O)cc(C)c1Br", "inhibition": "inconclusive: 13%"}, {"smiles": "CCc1nc2c(c3c1[nH]c1ccccc13)C(=O)CC(C)(C)C2", "inhibition": "inactive"}, {"smiles": "O=C1Nc2cc(C(=O)N3CCOCC3)ccc2N2CCCCC12", "note": "(centres undefined)", "inhibition": "inactive"}, {"smiles": "COc1ccccc1CN1CC[C@H](c2nnc(-c3ccccc3)o2)C1", "inhibition": "inconclusive: 18%"}, {"smiles": "CCOC(=O)c1ccccc1NC(=O)CN1CCCN(Cc2cccc(F)c2)S1(=O)=O", "inhibition": "inconclusive: 11%"}]}]}
